Test results from paper PMC8402715 (Viruses, 2021).

System: FLUAV-infected RPE cells
Test: Metabolomics of polar metabolites in media of FLUAV-infected RPE cells
Details: infected RPE cells (FLUAV moi 1), 10 μM, 24 h

Row | SMILES | levels of many polar metabolites in the media
1 | O=C(O)COCCN1CCN(C(c2ccccc2)c2ccc(Cl)cc2)CC1 (centres unmarked) [cetirizine] | elevated
2 | CC(C)c1c(C(=O)Nc2ccccc2)c(-c2ccccc2)c(-c2ccc(F)cc2)n1CC[C@@H](O)C[C@@H](O)CC(=O)O [Atorvastatin] | elevated
